Structures can show the parent of a compound that is named as a salt. For at least one compound, name, drawing or mass did not settle the structure. Some of these results come from one statement about several compounds together.
Key:
[1] = system: tobacco mosaic virus (TMV); experiment: Anti-TMV activity, overall statements on Table 1; assay type: in vivo, tobacco mosaic virus (host Nicotiana tabacum L.cv.Xanthi NN); settings: 100 μg/mL versus ningnanmycin at 100 μg/mL
[2] = system: re-uptake of 5-hydroxytryptamine; settings: cited from earlier work

SMILES | anti-TMV activity compared with ningnanmycin [1] | inhibition to the re-uptake of 5-hydroxytryptamine [2]
CCCCOC(=O)[C@@H]1Cc2c([nH]c3ccccc23)[C@H](C)N1 [Ib-8, (1S, 3S)-1-methyl-2,3,4,9-tetrahydropyridino [3,4-b] indol-3-butyl formate] | equivalent to the activity of commercial variety ningnanmycin | –
C[C@@H]1N[C@H](C(=O)NN=Cc2ccc(C(C)(C)C)cc2)Cc2c1[nH]c1ccccc21 [Ic-2, (1S, 3S)—N′-(4-tert-butylbenzylidene)-1-methyl-2,3,4,9-tetrahydropyridino [3,4-b] indol-3-formylhydrazine] | equivalent to the activity of commercial variety ningnanmycin | –
C[C@@H]1N[C@H](C(=O)NN=Cc2ccc(N(C)C)cc2)Cc2c1[nH]c1ccccc21 [Ic-3, (1S, 3S)—N′-(4-dimethylaminobenzylidene)-1-methyl-2,3,4,9-tetrahydropyridino [3,4-b] indol-3-formylhydrazine] | equivalent to the activity of commercial variety ningnanmycin | –
C[C@@H]1N[C@H](C(=O)NN=Cc2ccc([N+](=O)[O-])cc2)Cc2c1[nH]c1ccccc21 [Ic-4, (1S, 3S)—N′-(4-nitrobenzylidene)-1-methyl-2,3,4,9-tetrahydropyridino [3,4-b] indol-3-formylhydrazine] | equivalent to the activity of commercial variety ningnanmycin | –
C[C@@H]1N[C@H](C(=O)NN=Cc2ccc(Cl)cc2)Cc2c1[nH]c1ccccc21 [Ic-5, (1S, 3S)—N′-(4-chlorobenzylidene)-1-methyl-2,3,4,9-tetrahydropyridino [3,4-b] indol-3-formylhydrazine] | equivalent to the activity of commercial variety ningnanmycin | –
C[C@@H]1N[C@H](C(=O)NN=Cc2ccc(Cl)cc2Cl)Cc2c1[nH]c1ccccc21 [Ic-6, (1S, 3S)—N′-(2,4-dichlorobenzylidene)-1-methyl-2,3,4,9-tetrahydropyridino [3,4-b] indol-3-formylhydrazine] | equivalent to the activity of commercial variety ningnanmycin | –
C[C@@H]1N[C@H](C(=O)NN=Cc2ccc(Cl)c(Cl)c2)Cc2c1[nH]c1ccccc21 [Ic-7, (1S, 3S)—N′-(3,4-dichlorobenzylidene)-1-methyl-2,3,4,9-tetrahydropyridino [3,4-b] indol-3-formylhydrazine] | equivalent to the activity of commercial variety ningnanmycin | –
COc1ccc(C=NNC(=O)[C@@H]2Cc3c([nH]c4ccccc34)[C@H](C)N2)cc1 [Ic-8, (1S, 3S)—N′-(4-methoxybenzylidene)-1-methyl-2,3,4,9-tetrahydropyridino [3,4-b] indol-3-formylhydrazine] | equivalent to the activity of commercial variety ningnanmycin | –
COc1cccc(C=NNC(=O)[C@@H]2Cc3c([nH]c4ccccc34)[C@H](C)N2)c1 [Ic-9, (1S, 3S)—N′-(3-methoxybenzylidene)-1-methyl-2,3,4,9-tetrahydropyridino [3,4-b] indol-3-formylhydrazine] | equivalent to the activity of commercial variety ningnanmycin | –
CCCCCCCC=NNC(=O)[C@@H]1Cc2c([nH]c3ccccc23)[C@H](C)N1 [Ic-24, (1S, 3S)—N′-octadien-1-methyl-2,3,4,9-tetrahydropyridino [3,4-b] indol-3-formylhydrazine] | equivalent to the activity of commercial variety ningnanmycin | –
C[C@@H]1N[C@H](C(=O)NN=CC2CCCCC2)Cc2c1[nH]c1ccccc21 [Ic-25, (1S, 3S)—N′-(cyclohexylmethylene)-1-methyl-2,3,4,9-tetrahydropyridino [3,4-b] indol-3-formylhydrazine] | equivalent to the activity of commercial variety ningnanmycin | –
C[C@@H]1N[C@H](C(=O)NN=CC(C)(C)C)Cc2c1[nH]c1ccccc21 [Ic-26, (1S, 3S)—N′-(2,2-dimethylpropylidene)-1-methyl-2,3,4,9-tetrahydropyridino [3,4-b] indol-3-formylhydrazine] | equivalent to the activity of commercial variety ningnanmycin | –
COc1ccc2c3c([nH]c2c1)C(C)NCC3 (centres unmarked) [Tetrahydroharmine] | equivalent to the activity of commercial variety ningnanmycin | weak inhibition

— US10208033B2, “β-carboline, dihydro-β-carboline and tetrahydro-β-carboline alkaloid derivatives and preparation methods same and use in aspects of preventing and treating plant viruses, fungicides and insecticides” (NANKAI UNIVERSITY, priority 2013, dated 2019)
